# The list is a part of this screen's results and no random one: it gathers tests that were run many times, whatever their T/C, doses with no T/C, and many T/C values between a quarter and a half above the control. Other doses and runs of a compound stand elsewhere. T/C is the treated group as % of the vehicle group. Some doses have a count of surviving animals in place of a T/C: the source holds a T/C of zero for them, seemingly a mark for toxic or unscored doses. Some doses without a T/C left all or most animals alive at the check, yet need not have been tolerated: survival well below the control is almost never listed, so the zero probably covers shortened survival too. Survivors were counted at the toxicity check, usually on the fifth day, unless a day is given; later deaths do not show. Schedules are NCI's codes, read here as Q, the interval in days (D) or hours (H), X, the number of doses. Some schedule codes hold Z or #, which are not explained here. Some structures stand for samples that the source files as different forms (salt, stereo form or complex); doses refer to the form tested. Where survival is the endpoint, this PubChem deposit counts one and a half times the control or more as active, and values a quarter to a half above the control carry no call in these data; other NCI protocols may use other cut-offs. Signs of the kind (2×) count equal records among those shown. Some T/C values are followed by the survivors on the day toxicity was checked, most often the fifth; where none is given, no animal had died by that day. Some doses were run more than once; the values are given in rising order.
# System: BDF1 mice, intracerebral L1210 leukemia, survival T/C
# Test: NCI In Vivo Anticancer Drug Screen. Data for tumor model L1210 Leukemia (intracerebral) in B6D2F1 (BDF1) mice
# Details: higher T/C = longer survival
# Summary of the method: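 Survival measured in treated and vehicle-control tumour-bearing mice; value = T/C.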
# [1] = T/C endpoint: mean survival time, dose: 600.0 mg/kg/injection, schedule: Q01DX001 (ip), vehicle: carboxymethylcellulose (CMC)
# [2] = T/C endpoint: mean survival time, dose: 1200.0 mg/kg/injection, schedule: Q01DX001 (ip), vehicle: carboxymethylcellulose (CMC)
smiles,measurement,setting,value
N#CCCN(N=O)C(=O)Nc1ccccc1,survivor count,[1],0 of 10
same,survivor count,[2],0 of 10
same,survivor count,"T/C endpoint: mean survival time, dose: 2400.0 mg/kg/injection, schedule: Q01DX001 (ip), vehicle: carboxymethylcellulose (CMC)",0 of 10
CC12CC3(C)CC(C)(C1)CC(NC(=O)N(CCF)N=O)(C2)C3,T/C,"T/C endpoint: mean survival time, dose: 124.0 mg/kg/injection, schedule: Q01DX001 (ip), vehicle: other",127 % of control
same,T/C,"T/C endpoint: mean survival time, dose: 187.0 mg/kg/injection, schedule: Q01DX001 (ip), vehicle: other",137 % of control [9 of 10 alive]
same,survivor count,"T/C endpoint: mean survival time, dose: 280.0 mg/kg/injection, schedule: Q01DX001 (ip), vehicle: other",0 of 10
c1cc2n(n1)CCN2,survivor count,"T/C endpoint: median survival time, dose: 300.0 mg/kg/injection, schedule: Q01DX009 (ip), vehicle: water",4 of 8
same,survivor count,"T/C endpoint: median survival time, dose: 400.0 mg/kg/injection, schedule: Q01DX009 (ip), vehicle: water",1 of 8
same,T/C,"T/C endpoint: median survival time, dose: 400.0 mg/kg/injection, schedule: Q04DX003 (ip), vehicle: water",135 % of control
same,survivor count,"T/C endpoint: median survival time, dose: 600.0 mg/kg/injection, schedule: Q04DX003 (ip), vehicle: water",5 of 8
same,T/C,"T/C endpoint: median survival time, dose: 800.0 mg/kg/injection, schedule: Q04DX003 (ip), vehicle: water",134 % of control [6 of 8 alive]
N=c1ccn2c(n1)OC1C(O)C(CO)OC12 (stereo not given),T/C,"T/C endpoint: mean survival time, dose: 400.0 mg/kg/injection, schedule: Q08DX009 (ip), vehicle: water",130 % of control [7 of 8 alive]
same,T/C,"T/C endpoint: mean survival time, dose: 600.0 mg/kg/injection, schedule: Q08DX009 (ip), vehicle: water",144 % of control
same,survivor count,"T/C endpoint: mean survival time, dose: 800.0 mg/kg/injection, schedule: Q01DX009 (oral), vehicle: water",4 of 8
same,T/C,"T/C endpoint: mean survival time, dose: 800.0 mg/kg/injection, schedule: Q08DX009 (ip), vehicle: water",148 % of control [6 of 8 alive]
same,T/C,"T/C endpoint: median survival time, dose: 39.0 mg/kg/injection, schedule: Q01DX009 (ip), vehicle: water, evaluated on day 5",148 % of control
same,T/C,"T/C endpoint: median survival time, dose: 39.0 mg/kg/injection, schedule: Q01DX009 (ip), vehicle: water, evaluated on day 60",148 % of control
same,T/C,"T/C endpoint: median survival time, dose: 180.0 mg/kg/injection, schedule: Q01DX009 (ip), vehicle: water, evaluated on day 5","190, 201, 214 % of control"
same,T/C,"T/C endpoint: median survival time, dose: 180.0 mg/kg/injection, schedule: Q01DX009 (ip), vehicle: water, evaluated on day 60",190 % of control
same,T/C,"T/C endpoint: median survival time, dose: 180.0 mg/kg/injection, schedule: Q01DX009 (ip), vehicle: water, evaluated on day 64",201 and 214 % of control
same,T/C,"T/C endpoint: median survival time, dose: 300.0 mg/kg/injection, schedule: Q01DX009 (ip), vehicle: water, evaluated on day 5","223, 224, 259 % of control"
same,T/C,"T/C endpoint: median survival time, dose: 300.0 mg/kg/injection, schedule: Q01DX009 (ip), vehicle: water, evaluated on day 60",223 % of control
same,T/C,"T/C endpoint: median survival time, dose: 300.0 mg/kg/injection, schedule: Q01DX009 (ip), vehicle: water, evaluated on day 64",224 and 259 % of control [7 of 8 alive]
same,T/C,"T/C endpoint: median survival time, dose: 500.0 mg/kg/injection, schedule: Q01DX009 (ip), vehicle: water, evaluated on day 5","238, 386, 611 % of control"
same,T/C,"T/C endpoint: median survival time, dose: 500.0 mg/kg/injection, schedule: Q01DX009 (ip), vehicle: water, evaluated on day 60",386 % of control
same,T/C,"T/C endpoint: median survival time, dose: 500.0 mg/kg/injection, schedule: Q01DX009 (ip), vehicle: water, evaluated on day 64",238 and 611 % of control
same,survivor count,"T/C endpoint: median survival time, dose: 800.0 mg/kg/injection, schedule: Q01DX009 (ip), vehicle: water",4 of 8
same,T/C,"T/C endpoint: median survival time, dose: 833.0 mg/kg/injection, schedule: Q01DX009 (ip), vehicle: water, evaluated on day 5",76 and 86 % of control
same,T/C,"T/C endpoint: median survival time, dose: 833.0 mg/kg/injection, schedule: Q01DX009 (ip), vehicle: water, evaluated on day 64",86 % of control [7 of 8 alive]
same,survivor count,"T/C endpoint: median survival time, dose: 833.0 mg/kg/injection, schedule: Q01DX009 (ip), vehicle: water",6 of 8
C[n+]1c2ccccc2c(Nc2ccc(NS(=O)(=O)CCCCN=C(N)N)cc2)c2ccc(N)cc21,survivor count,"T/C endpoint: mean survival time, dose: 24.0 mg/kg/injection, schedule: Q01DX009 (ip), vehicle: water",1 of 10
CC(=O)OCC1OC(n2cnc3c(=S)nc[nH]c32)C(OC(C)=O)C1OC(C)=O (stereo not given),T/C,"T/C endpoint: mean survival time, dose: 50.0 mg/kg/injection, schedule: Q01DX Z (ip), vehicle: carboxymethylcellulose (CMC)",131 % of control (2×)
same,T/C,"T/C endpoint: mean survival time, dose: 100.0 mg/kg/injection, schedule: Q01DX Z (ip), vehicle: carboxymethylcellulose (CMC)",138 % of control
COc1ccc2c(Nc3ccc(NS(C)(=O)=O)cc3)c3ccccc3nc2c1,survivor count,"T/C endpoint: mean survival time, dose: 25.0 mg/kg/injection, schedule: Q01DX009 (ip), vehicle: saline",8 of 10
same,survivor count,"T/C endpoint: mean survival time, dose: 50.0 mg/kg/injection, schedule: Q01DX009 (ip), vehicle: saline",8 of 10
C[C@@H](CN1CC(=O)NC(=O)C1)N1CC(=O)NC(=O)C1,T/C,"T/C endpoint: median survival time, dose: 32.0 mg/kg/injection, schedule: Q01DX009 (ip), vehicle: water, evaluated on day 30",131 % of control
same,T/C,"T/C endpoint: median survival time, dose: 32.0 mg/kg/injection, schedule: Q01DX009 (ip), vehicle: water, evaluated on day 31",128 % of control
same,T/C,"T/C endpoint: median survival time, dose: 32.0 mg/kg/injection, schedule: Q01DX009 (ip), vehicle: water, evaluated on day 36",126 % of control [8 of 10 alive]
same,T/C,"T/C endpoint: median survival time, dose: 64.0 mg/kg/injection, schedule: Q01DX009 (ip), vehicle: water, evaluated on day 30",146 % of control
same,T/C,"T/C endpoint: median survival time, dose: 64.0 mg/kg/injection, schedule: Q01DX009 (ip), vehicle: water, evaluated on day 31",131 % of control
same,T/C,"T/C endpoint: median survival time, dose: 64.0 mg/kg/injection, schedule: Q01DX009 (ip), vehicle: water, evaluated on day 36",132 % of control [9 of 10 alive]
same,T/C,"T/C endpoint: median survival time, dose: 128.0 mg/kg/injection, schedule: Q01DX009 (ip), vehicle: water",138 % of control
same,T/C,"T/C endpoint: median survival time, dose: 256.0 mg/kg/injection, schedule: Q01DX009 (ip), vehicle: water",146 % of control
C=CCOCCN1CCN(CCCN2c3ccccc3Sc3ccc(C(F)(F)F)cc32)CC1,survivor count,"T/C endpoint: mean survival time, dose: 3.12 mg/kg/injection, schedule: Q01DX009 (ip), vehicle: saline",2 of 6
same,survivor count,"T/C endpoint: mean survival time, dose: 6.25 mg/kg/injection, schedule: Q01DX009 (ip), vehicle: saline",3 of 6
same,survivor count,"T/C endpoint: mean survival time, dose: 12.5 mg/kg/injection, schedule: Q01DX009 (ip), vehicle: saline",0 of 6
same,survivor count,"T/C endpoint: mean survival time, dose: 25.0 mg/kg/injection, schedule: Q04DX003 (ip), vehicle: saline",4 of 6
same,survivor count,"T/C endpoint: mean survival time, dose: 35.0 mg/kg/injection, schedule: Q04DX003 (ip), vehicle: saline",2 of 6
same,survivor count,"T/C endpoint: mean survival time, dose: 50.0 mg/kg/injection, schedule: Q04DX003 (ip), vehicle: saline",1 of 6
CC(Cl)CNC(=O)N(CC(C)Cl)N=O (stereo not given),T/C,"T/C endpoint: mean survival time, dose: 750.0 mg/kg/injection, schedule: Q01DX001 (ip), vehicle: carboxymethylcellulose (CMC)",133 % of control [5 of 6 alive]
CN(N=O)C(=O)Nc1ccc(F)cc1,survivor count,"T/C endpoint: mean survival time, dose: 300.0 mg/kg/injection, schedule: Q01DX001 (ip), vehicle: carboxymethylcellulose (CMC)",0 of 10
same,survivor count,[1],0 of 10
same,survivor count,[2],0 of 10
C1CN1c1nc(N2CC2)nc(N2CC2)n1,T/C,"T/C endpoint: mean survival time, dose: 0.37 mg/kg/injection, schedule: Q01DX Z (ip), vehicle: saline",136 % of control
same,T/C,"T/C endpoint: mean survival time, dose: 0.75 mg/kg/injection, schedule: Q01DX Z (ip), vehicle: saline",126 % of control
same,T/C,"T/C endpoint: mean survival time, dose: 1.4 mg/kg/injection, schedule: Q01DX001 (ip), vehicle: saline",127 % of control
same,survivor count,"T/C endpoint: mean survival time, dose: 2.0 mg/kg/injection, schedule: Q01DX Z (ip), vehicle: saline",6 of 6
same,survivor count,"T/C endpoint: mean survival time, dose: 2.5 mg/kg/injection, schedule: Q01DX Z (ip), vehicle: saline",3 of 6
same,survivor count,"T/C endpoint: mean survival time, dose: 3.0 mg/kg/injection, schedule: Q01DX Z (ip), vehicle: saline",3 of 6
[N-]=[N+]=CC(=O)NCC(=O)NN,survivor count,"T/C endpoint: mean survival time, dose: 600.0 mg/kg/injection, schedule: Q01DX Z (ip), vehicle: water",6 of 6
CS(=O)(=O)Nc1ccc(Nc2c3ccccc3nc3cc([N+](=O)[O-])ccc23)cc1,survivor count,"T/C endpoint: mean survival time, dose: 10.0 mg/kg/injection, schedule: Q01DX009 (ip), vehicle: Klucel (hydroxypropylcellulose) (HPC)",9 of 10
same,survivor count,"T/C endpoint: mean survival time, dose: 100.0 mg/kg/injection, schedule: Q01DX001 (ip), vehicle: saline",6 of 10
CN(N=O)C(=O)Nc1ccc(C(=O)O)cc1,survivor count,"T/C endpoint: mean survival time, dose: 240.0 mg/kg/injection, schedule: Q01DX001 (ip), vehicle: carboxymethylcellulose (CMC)",8 of 10
same,survivor count,"T/C endpoint: mean survival time, dose: 480.0 mg/kg/injection, schedule: Q01DX001 (ip), vehicle: carboxymethylcellulose (CMC)",0 of 10
same,survivor count,"T/C endpoint: mean survival time, dose: 960.0 mg/kg/injection, schedule: Q01DX001 (ip), vehicle: carboxymethylcellulose (CMC)",0 of 10
